Laboratory results as given in the supplement of paper PMC10849652.
The list shows a part of the results.

By UniProt entry, the sequences of proteins in these tests, tags left out. Where a name states a change or a piece, a line headed by the entry shows the natural chain unless it says otherwise.
UniProt Q96L93: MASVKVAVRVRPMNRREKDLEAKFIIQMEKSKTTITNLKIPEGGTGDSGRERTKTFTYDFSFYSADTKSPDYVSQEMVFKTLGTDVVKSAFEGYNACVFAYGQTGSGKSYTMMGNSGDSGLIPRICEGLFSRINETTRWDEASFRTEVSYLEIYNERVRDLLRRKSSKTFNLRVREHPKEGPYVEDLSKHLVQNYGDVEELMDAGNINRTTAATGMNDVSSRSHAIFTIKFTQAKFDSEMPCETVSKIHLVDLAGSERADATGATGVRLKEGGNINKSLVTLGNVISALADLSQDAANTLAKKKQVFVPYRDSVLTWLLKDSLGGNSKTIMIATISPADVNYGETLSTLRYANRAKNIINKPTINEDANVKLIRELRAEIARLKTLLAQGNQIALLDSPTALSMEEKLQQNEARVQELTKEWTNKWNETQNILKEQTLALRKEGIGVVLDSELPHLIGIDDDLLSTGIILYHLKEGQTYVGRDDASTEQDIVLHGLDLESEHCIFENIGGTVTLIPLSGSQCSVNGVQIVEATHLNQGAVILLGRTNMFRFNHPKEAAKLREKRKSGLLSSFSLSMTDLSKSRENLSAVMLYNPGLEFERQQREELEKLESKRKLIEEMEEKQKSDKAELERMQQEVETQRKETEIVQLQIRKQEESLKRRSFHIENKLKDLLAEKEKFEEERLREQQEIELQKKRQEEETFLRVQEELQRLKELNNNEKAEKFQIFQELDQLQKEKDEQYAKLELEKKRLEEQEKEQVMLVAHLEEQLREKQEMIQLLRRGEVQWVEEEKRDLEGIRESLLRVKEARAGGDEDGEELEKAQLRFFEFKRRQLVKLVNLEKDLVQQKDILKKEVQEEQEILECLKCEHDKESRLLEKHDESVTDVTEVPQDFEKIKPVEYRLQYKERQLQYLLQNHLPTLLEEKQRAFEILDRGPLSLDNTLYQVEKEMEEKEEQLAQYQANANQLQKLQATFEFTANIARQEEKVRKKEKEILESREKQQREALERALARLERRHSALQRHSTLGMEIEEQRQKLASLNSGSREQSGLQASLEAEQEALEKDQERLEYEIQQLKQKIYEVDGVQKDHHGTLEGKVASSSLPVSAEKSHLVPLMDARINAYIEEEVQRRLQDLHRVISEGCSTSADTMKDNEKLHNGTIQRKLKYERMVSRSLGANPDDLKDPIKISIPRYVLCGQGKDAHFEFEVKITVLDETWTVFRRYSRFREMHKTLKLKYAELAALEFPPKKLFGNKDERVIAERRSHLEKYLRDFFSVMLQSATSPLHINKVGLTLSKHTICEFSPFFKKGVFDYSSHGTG
UniProt Q9P0J7: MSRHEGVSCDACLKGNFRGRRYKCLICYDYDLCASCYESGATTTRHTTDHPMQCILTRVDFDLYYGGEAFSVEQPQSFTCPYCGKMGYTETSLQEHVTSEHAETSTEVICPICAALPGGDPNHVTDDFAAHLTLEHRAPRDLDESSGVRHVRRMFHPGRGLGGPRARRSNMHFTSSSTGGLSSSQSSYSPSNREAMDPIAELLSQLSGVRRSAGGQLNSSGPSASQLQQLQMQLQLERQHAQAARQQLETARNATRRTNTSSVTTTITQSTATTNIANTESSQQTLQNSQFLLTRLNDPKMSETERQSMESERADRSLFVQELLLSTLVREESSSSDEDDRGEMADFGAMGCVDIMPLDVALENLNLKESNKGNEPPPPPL
UniProt O43896: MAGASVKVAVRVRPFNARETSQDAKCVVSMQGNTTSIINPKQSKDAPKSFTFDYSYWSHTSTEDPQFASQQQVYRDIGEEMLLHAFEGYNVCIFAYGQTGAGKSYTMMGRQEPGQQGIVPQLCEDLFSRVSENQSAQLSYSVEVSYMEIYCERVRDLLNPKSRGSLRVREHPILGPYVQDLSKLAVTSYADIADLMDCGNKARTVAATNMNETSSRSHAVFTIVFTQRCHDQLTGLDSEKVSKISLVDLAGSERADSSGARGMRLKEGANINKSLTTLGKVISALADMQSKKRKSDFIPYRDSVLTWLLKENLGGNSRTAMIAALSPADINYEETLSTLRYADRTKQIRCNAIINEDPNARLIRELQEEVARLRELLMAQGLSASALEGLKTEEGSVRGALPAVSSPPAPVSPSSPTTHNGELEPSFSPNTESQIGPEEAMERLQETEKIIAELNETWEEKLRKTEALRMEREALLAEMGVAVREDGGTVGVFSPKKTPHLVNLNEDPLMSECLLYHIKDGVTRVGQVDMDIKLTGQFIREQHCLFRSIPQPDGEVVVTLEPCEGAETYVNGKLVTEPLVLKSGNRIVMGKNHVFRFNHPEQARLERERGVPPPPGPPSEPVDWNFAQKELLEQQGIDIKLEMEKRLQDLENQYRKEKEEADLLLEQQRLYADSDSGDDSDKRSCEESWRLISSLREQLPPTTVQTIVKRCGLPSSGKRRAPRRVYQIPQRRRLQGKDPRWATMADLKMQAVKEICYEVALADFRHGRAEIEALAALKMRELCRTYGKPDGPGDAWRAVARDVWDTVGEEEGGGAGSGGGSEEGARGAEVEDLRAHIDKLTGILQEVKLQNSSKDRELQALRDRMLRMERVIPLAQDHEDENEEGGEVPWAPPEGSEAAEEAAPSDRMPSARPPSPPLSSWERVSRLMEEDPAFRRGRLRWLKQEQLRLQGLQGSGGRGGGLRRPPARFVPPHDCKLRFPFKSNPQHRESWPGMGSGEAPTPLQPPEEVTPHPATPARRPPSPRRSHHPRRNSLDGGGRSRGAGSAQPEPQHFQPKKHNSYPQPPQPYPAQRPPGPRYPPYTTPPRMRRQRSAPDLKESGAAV
UniProt Q12809: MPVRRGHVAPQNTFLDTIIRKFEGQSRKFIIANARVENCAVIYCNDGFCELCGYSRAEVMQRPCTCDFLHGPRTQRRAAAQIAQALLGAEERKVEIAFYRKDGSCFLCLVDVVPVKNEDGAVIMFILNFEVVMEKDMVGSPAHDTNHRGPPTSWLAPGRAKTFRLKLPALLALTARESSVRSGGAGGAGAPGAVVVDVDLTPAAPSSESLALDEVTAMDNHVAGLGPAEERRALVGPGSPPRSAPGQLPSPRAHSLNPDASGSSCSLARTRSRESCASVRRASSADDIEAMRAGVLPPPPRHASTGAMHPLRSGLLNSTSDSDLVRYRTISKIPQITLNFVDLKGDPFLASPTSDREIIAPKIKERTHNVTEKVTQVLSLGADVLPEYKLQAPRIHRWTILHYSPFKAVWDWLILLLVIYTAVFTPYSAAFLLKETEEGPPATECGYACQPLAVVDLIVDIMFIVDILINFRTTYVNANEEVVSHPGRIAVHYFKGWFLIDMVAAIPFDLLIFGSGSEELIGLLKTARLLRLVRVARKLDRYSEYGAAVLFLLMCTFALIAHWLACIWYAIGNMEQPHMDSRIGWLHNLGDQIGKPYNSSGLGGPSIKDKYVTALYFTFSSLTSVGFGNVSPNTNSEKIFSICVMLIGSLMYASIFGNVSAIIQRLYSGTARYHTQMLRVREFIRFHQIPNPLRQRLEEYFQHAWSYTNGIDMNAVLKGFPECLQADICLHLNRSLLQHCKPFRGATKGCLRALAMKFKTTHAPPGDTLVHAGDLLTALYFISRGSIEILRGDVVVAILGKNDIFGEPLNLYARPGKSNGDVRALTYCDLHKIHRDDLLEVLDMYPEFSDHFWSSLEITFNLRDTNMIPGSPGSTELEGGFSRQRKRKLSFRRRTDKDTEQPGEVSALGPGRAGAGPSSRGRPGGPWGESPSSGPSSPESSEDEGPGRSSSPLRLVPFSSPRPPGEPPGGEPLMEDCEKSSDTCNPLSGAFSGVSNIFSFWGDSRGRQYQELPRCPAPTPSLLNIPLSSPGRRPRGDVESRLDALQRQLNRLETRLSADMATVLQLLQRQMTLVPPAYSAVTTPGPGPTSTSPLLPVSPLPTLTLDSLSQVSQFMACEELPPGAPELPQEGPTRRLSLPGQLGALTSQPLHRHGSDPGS
UniProt O15550, whole entry, looked up: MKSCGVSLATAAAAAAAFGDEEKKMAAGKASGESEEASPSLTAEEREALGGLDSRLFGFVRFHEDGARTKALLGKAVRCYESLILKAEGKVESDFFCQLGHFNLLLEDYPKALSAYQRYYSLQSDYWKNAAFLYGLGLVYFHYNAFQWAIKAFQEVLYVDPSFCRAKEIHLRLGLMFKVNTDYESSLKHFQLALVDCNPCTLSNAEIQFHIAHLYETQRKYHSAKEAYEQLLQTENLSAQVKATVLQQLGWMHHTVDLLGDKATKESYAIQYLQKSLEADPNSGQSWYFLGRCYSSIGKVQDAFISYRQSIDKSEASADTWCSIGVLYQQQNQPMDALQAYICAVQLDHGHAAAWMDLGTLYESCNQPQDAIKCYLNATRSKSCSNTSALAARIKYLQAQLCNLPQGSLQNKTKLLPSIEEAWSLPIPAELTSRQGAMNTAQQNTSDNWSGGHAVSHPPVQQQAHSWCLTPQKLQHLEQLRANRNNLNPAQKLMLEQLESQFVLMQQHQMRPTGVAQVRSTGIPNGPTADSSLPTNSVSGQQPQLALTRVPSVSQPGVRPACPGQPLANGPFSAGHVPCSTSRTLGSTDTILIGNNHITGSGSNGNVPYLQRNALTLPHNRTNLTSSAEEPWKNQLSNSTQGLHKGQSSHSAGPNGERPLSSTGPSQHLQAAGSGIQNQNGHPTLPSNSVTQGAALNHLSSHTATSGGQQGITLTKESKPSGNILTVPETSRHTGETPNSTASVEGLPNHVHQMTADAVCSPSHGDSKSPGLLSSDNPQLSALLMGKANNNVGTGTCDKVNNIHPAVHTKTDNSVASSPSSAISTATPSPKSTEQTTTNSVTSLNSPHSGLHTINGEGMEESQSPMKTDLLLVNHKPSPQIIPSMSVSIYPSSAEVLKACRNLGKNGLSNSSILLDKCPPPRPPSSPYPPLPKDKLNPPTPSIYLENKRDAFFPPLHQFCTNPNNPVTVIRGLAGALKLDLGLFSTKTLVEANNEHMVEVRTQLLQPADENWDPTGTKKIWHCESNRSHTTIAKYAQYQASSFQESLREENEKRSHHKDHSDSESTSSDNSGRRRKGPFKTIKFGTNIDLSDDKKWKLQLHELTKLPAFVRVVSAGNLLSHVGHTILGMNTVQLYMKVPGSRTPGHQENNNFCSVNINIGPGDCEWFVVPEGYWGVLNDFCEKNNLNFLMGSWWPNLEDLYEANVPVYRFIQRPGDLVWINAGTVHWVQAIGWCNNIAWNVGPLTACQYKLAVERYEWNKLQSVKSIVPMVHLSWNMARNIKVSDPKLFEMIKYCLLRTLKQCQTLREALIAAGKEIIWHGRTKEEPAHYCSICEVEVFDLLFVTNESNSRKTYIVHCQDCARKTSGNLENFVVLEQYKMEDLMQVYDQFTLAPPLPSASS
UniProt Q13351: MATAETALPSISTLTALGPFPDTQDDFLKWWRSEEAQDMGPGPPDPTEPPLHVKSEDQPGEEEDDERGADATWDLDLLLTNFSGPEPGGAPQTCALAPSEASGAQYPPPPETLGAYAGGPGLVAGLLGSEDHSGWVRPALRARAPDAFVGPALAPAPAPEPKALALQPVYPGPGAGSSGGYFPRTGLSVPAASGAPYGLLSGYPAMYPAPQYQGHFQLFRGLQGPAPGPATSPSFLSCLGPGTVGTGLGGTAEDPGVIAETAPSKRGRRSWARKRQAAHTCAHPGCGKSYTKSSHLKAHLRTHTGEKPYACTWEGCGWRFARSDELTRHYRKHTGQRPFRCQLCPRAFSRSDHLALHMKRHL
UniProt Q8NB78: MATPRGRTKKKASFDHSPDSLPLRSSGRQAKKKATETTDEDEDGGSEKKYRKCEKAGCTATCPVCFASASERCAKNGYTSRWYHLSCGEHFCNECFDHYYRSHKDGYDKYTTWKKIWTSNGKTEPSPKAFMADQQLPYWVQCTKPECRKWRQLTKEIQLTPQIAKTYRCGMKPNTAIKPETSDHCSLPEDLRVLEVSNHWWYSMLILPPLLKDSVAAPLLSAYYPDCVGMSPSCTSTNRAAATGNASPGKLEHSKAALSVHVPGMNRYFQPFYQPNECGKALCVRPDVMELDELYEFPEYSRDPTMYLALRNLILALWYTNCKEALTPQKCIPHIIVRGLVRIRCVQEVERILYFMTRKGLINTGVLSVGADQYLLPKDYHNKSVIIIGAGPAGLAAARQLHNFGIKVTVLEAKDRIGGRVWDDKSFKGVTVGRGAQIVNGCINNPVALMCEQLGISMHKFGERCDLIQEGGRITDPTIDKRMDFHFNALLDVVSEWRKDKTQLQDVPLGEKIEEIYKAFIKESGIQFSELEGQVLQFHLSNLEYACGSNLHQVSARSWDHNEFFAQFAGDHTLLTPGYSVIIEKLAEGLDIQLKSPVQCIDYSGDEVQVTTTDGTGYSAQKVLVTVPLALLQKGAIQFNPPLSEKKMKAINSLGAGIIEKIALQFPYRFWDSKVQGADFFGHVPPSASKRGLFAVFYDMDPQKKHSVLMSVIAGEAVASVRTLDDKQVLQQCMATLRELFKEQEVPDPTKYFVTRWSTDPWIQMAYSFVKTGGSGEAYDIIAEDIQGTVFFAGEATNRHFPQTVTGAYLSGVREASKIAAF

Experiments:
Experiment in all cases: log2 fold change, soluble protein after heating vs DMSO (PISA); higher = thermal stabilisation; K562 cells, 10 uM, 30 min; active = over 0.2 and 3.5 SD of the protein, either way, in both replicates (recomputed)
saracatinib = compound: CN1CCN(CCOc2cc(OC3CCOCC3)c3c(Nc4c(Cl)ccc5c4OCO5)ncnc3c2)CC1 [saracatinib]
In short: (§1)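 K562 cells at 2×10^6 cells/mL were treated for 30 min with 10 μM compound, and aliquots were heated for 3 min over 48°C-58°C before pooling. Extraction used PBS with 0.5% NP-40 at 4°C, and soluble protein was the supernatant after 21,000xg for 90 min, measured by TMTpro 16plex LC-MS/MS with channel sums equalised. Thermal stability values, relative to control samples and from duplicates, are log2 fold changes.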

alvocidib = compound: CN1CC[C@H](c2c(O)cc(O)c3c(=O)cc(-c4ccccc4Cl)oc23)[C@H](O)C1 [alvocidib]
In short: as §1

rucaparib = compound: CNCc1ccc(-c2[nH]c3cc(F)cc4c3c2CCNC4=O)cc1 [rucaparib]
In short: as §1

[1] = compound: CNc1nc(-c2ccc3c(N)n[nH]c3c2)cc(N2C[C@@H](C(=O)NC3CCCCC3)CC[C@H]2C)n1
In short: as §1

encorafenib = compound: COC(=O)N[C@@H](C)CNc1nccc(-c2cn(C(C)C)nc2-c2cc(Cl)cc(NS(C)(=O)=O)c2F)n1 [encorafenib]
In short: as §1

zotarolimus = compound: CO[C@H]1C[C@@H]2CC[C@@H](C)[C@@](O)(O2)C(=O)C(=O)N2CCCC[C@H]2C(=O)O[C@H]([C@H](C)C[C@@H]2CC[C@H](n3cnnn3)[C@H](OC)C2)CC(=O)[C@H](C)/C=C(\C)[C@@H](O)[C@@H](OC)C(=O)[C@H](C)C[C@H](C)/C=C/C=C/C=C/1C [zotarolimus]
In short: as §1

idasanutlin = compound: COc1cc(C(=O)O)ccc1NC(=O)[C@@H]1N[C@@H](CC(C)(C)C)[C@](C#N)(c2ccc(Cl)cc2F)[C@H]1c1cccc(Cl)c1F [idasanutlin]
In short: as §1

sotrastaurin = compound: CN1CCN(c2nc(C3=C(c4c[nH]c5ccccc45)C(=O)NC3=O)c3ccccc3n2)CC1 [sotrastaurin]
In short: as §1

Tubastatin A = compound: CN1CCc2c(c3ccccc3n2Cc2ccc(C(=O)NO)cc2)C1 [Tubastatin A]
In short: as §1

[2] = compound: CNC(=O)C1=CC=CC=C1NC2=NC(=NC=C2Cl)NC3=C(C=C(C=C3)N4CCOCC4)OC
In short: as §1

defactinib = compound: CNC(=O)c1ccc(Nc2ncc(C(F)(F)F)c(NCc3nccnc3N(C)S(C)(=O)=O)n2)cc1 [defactinib]
In short: as §1

[3] = compound: COC(=O)[C@H](CCSC)NC(=O)C1=C(C=C(C=C1)NC[C@H](CS)N)C2=CC=CC=C2
In short: as §1

[4] = compound: COC1=CC=C(C=C1)CN2C=CC3=C2C=C(C=C3)C(=O)NO
In short: as §1

filanesib = compound: CON(C)C(=O)N1N=C(c2cc(F)ccc2F)S[C@@]1(CCCN)c1ccccc1 [filanesib]
In short: as §1

alisertib = compound: COc1cc(Nc2ncc3c(n2)-c2ccc(Cl)cc2C(c2c(F)cccc2OC)=NC3)ccc1C(=O)O [alisertib]
In short: as §1

[5] = compound: COc1cc2nc(-c3cc(F)ccc3O)nc(N[C@@H]3CNC[C@H]3C(C)(C)O)c2cc1OC
In short: as §1

gefitinib = compound: COc1cc2ncnc(Nc3ccc(F)c(Cl)c3)c2cc1OCCCN1CCOCC1 [gefitinib]
In short: as §1

[6] = compound: COc1cccc2cc(-c3nc([C@H]4CC[C@H](C(=O)O)CC4)n4ncnc(N)c34)[nH]c12
In short: as §1

lapatinib = compound: CS(=O)(=O)CCNCc1ccc(-c2ccc3ncnc(Nc4ccc(OCc5cccc(F)c5)c(Cl)c4)c3c2)o1 [lapatinib]
In short: as §1

pictilisib = compound: CS(=O)(=O)N1CCN(Cc2cc3nc(-c4cccc5[nH]ncc45)nc(N4CCOCC4)c3s2)CC1 [pictilisib]
In short: as §1

Measured: log2 fold change

KIF16B isoform 2 (UniProt Q96L93)
inactive: saracatinib -0.138 | alvocidib 0.091 | rucaparib -0.056 | [1] -0.161 | encorafenib -0.008 | zotarolimus -0.054 | idasanutlin 0.138

KCMF1 (UniProt Q9P0J7)
inactive: sotrastaurin -0.124 | alvocidib -0.04 | Tubastatin A 0.016 | [2] 0.022 | defactinib 0.013 | rucaparib 0.069 | encorafenib 0.055 | [3] -0.029 | [4] -0.006 | filanesib 0.043 | zotarolimus 0.04 | idasanutlin -0.051 | alisertib -0.087 | [5] 0.057 | gefitinib -0.077 | [6] -0.004 | lapatinib 0.189 | pictilisib -0.241

KISS1R (UniProt Q969F8)
inactive: saracatinib -0.246 | sotrastaurin -0.046 | Tubastatin A 0 | [2] -0.019 | [1] 0.043 | [4] -0.032 | filanesib 0.066 | alisertib -0.187 | [5] 0.065 | [6] 0.06 | lapatinib -0.099 | pictilisib -0.252

KIF21B (UniProt O75037)
inactive: saracatinib -0.181 | [2] -0.328 | [1] 0.09 | gefitinib -0.066

KIF1C (UniProt O43896)
inactive: sotrastaurin -0.14 | alvocidib -0.343 | [4] -0.287 | filanesib 0.481 | zotarolimus 0.043

KLHL20 (UniProt Q9Y2M5)
inactive: saracatinib 0.063 | Tubastatin A -0.157 | [2] 0.184 | defactinib 0.004 | [1] -0.054 | [3] -0.095 | idasanutlin 0.119 | alisertib -0.038 | [5] 0.007 | gefitinib 0.068 | [6] 0.063 | lapatinib 0.026 | pictilisib -0.025

Reprinted from the listing (2 entries):
KIF1C (UniProt O43896)
inactive: sotrastaurin -0.14 | alvocidib -0.343 | [4] -0.287 | filanesib 0.481 | zotarolimus 0.043

KLHL20 (UniProt Q9Y2M5)
inactive: saracatinib 0.063 | Tubastatin A -0.157 | [2] 0.184 | defactinib 0.004 | [1] -0.054 | [3] -0.095 | idasanutlin 0.119 | alisertib -0.038 | [5] 0.007 | gefitinib 0.068 | [6] 0.063 | lapatinib 0.026 | pictilisib -0.025

Later entries:

KDF1 (UniProt Q8NAX2)
inactive: saracatinib 0.136 | alvocidib 0.024 | [2] -0.193 | [1] 0.07 | [4] 0.011 | zotarolimus -0.182

KNOP1 (UniProt Q1ED39)
inactive: saracatinib -0.124 | alvocidib 0.404 | Tubastatin A 0.161 | [2] -0.194 | defactinib 0.001 | rucaparib 0.08 | [1] 0.191 | encorafenib -0.108 | [3] 0.052 | [4] 0.022 | zotarolimus -0.35 | idasanutlin 0.148 | alisertib 0.021 | [5] 0.309 | gefitinib -0.004 | [6] -0.085 | lapatinib -0.056 | pictilisib -0.369

JMJD8 (UniProt Q96S16)
inactive: saracatinib -0.027 | sotrastaurin -0.183 | defactinib 0.044 | [1] -0.083 | [3] -0.02 | [4] 0.053 | filanesib 0.001 | idasanutlin -0.047 | alisertib 0.271 | [5] -0.123 | gefitinib 0.081 | [6] -0.019 | lapatinib 0.045

KCTD1 (UniProt Q719H9)
inactive: saracatinib 0.021 | Tubastatin A -0.033 | defactinib -0.19 | [1] -0.379 | [3] -0.042 | [4] 0.054 | gefitinib 0.054

KIDINS220 isoform 2 (UniProt Q9ULH0)
inactive: saracatinib -0.331 | sotrastaurin 0.013 | Tubastatin A -0.042 | defactinib 0.026 | [1] -0.169 | [3] -0.105 | [4] -0.155 | filanesib 0.192 | gefitinib 0.162

KDELR3 (UniProt O43731)
inactive: saracatinib 0.374 | Tubastatin A -0.142 | [2] 0.084 | [1] -0.091 | [4] -0.037 | idasanutlin 0.012 | alisertib -0.086 | gefitinib -0.103 | [6] 0.432

JOSD1 (UniProt Q15040)
inactive: saracatinib -0.08 | alvocidib -0.118 | [2] -0.064 | [1] 0.217 | zotarolimus -0.038 | idasanutlin -0.062

KCNH2 (UniProt Q12809)
inactive: saracatinib -0.26 | sotrastaurin -0.04 | Tubastatin A 0.213 | [2] -0.221 | defactinib 0.217 | [1] 0.092 | [3] 0.088 | filanesib 0.006 | zotarolimus 0.036 | alisertib 0.017 | [5] -0.082 | [6] -0.271 | lapatinib -0.084

KDELR1 (UniProt P24390)
inactive: saracatinib 0.195 | sotrastaurin -0.019 | Tubastatin A -0.168 | [2] 0.078 | rucaparib 0.059 | [1] -0.027 | encorafenib -0.022 | [4] -0.112 | filanesib 0.008 | alisertib -0.02 | [5] -0.114 | gefitinib -0.182 | [6] -0.017 | lapatinib -0.02

JAK3 (UniProt P52333)
inactive: saracatinib -0.03 | sotrastaurin -0.042 | Tubastatin A -0.016 | [2] 0.116 | defactinib 0.003 | [1] -0.158 | [3] -0.056 | [4] -0.216 | filanesib -0.019 | zotarolimus 0.018 | alisertib 0.052 | [5] -0.083 | gefitinib -0.047 | [6] -0.02 | lapatinib 0.01 | pictilisib -0.056

KDM6A (UniProt O15550)
inactive: saracatinib -0.393 | alvocidib 0.028 | defactinib 0.096 | [1] 0.014 | [3] -0.07 | zotarolimus 0.272 | idasanutlin 0.093 | [5] 0.169 | lapatinib 0.034

KLF1 (UniProt Q13351)
inactive: saracatinib 0.075 | sotrastaurin 0.182 | defactinib 0.067 | rucaparib 0.027 | [1] 0.09 | encorafenib 0.013 | [3] -0.002 | [4] 0.008 | filanesib 0.072 | alisertib 0.117 | [5] 0.02 | gefitinib -0.043 | [6] -0.33 | lapatinib -0.001 | pictilisib -0.058

KDM1B (UniProt Q8NB78)
inactive: saracatinib -0.22 | sotrastaurin -0.048 | Tubastatin A 0.04 | [2] -0.013 | rucaparib 0.361 | [1] 0.191 | encorafenib -0.055 | [4] -0.121 | filanesib -0.036 | alisertib 0.016 | gefitinib 0 | [6] 0.166
